PubChem BioAssay AID1259327 – Drosophila RNAi Screening Center, 2017

- Purpose: 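Baseline ATP after transmembrane-protein gene knock-down with water vehicle only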
- System: Drosophila S2R+ cells
- Knock-down reagent: long dsRNA against Drosophila genes
- Timing: 5 days (water added on day 4, read one day later)
- Challenge: water added as vehicle, no metal, one day before read-out
- Detection: 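Total ATP measured by luciferase light, scaled to plate mean, duplicates averaged, then z-scored across plates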
- Reading the numbers: ATP z-score: higher = more total ATP than typical wells; ATP luminescence: higher = more total ATP
- Active means: 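Called active when the ATP z-score exceeds 1.5 or falls below -1.5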
- Calls: active = hit: ATP up or down; inactive = no clear ATP change
Here is a random part of about 3,100 reagents tested. In the full data, 378 (12%) are marked active. 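Hits include both directions; z-score sign shows ATP rise or fall; raw luminescence values are not plate-normalised.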 Reagents against one gene are numbered here. A plus sign joins genes that one reagent is predicted to hit. The record does not give: the amount of reagent.

target gene,reagent no.,"ATP z-score, duplicate mean","ATP luminescence, replicate 1 (RLU)","ATP luminescence, replicate 2 (RLU)",Call
CG12531,1,0.769,7.95e5,8.59e5,inactive
CG12531,2,-1.29,8.91e5,1.03e6,inactive
TkR99D,1,-1.36,5.36e5,7.20e5,inactive
TkR99D,2,1.38,6.73e5,7.34e5,inactive
nAChRbeta3,1,-0.995,4.23e5,3.95e5,inactive
nAChRalpha4,1,-0.73,8.70e5,7.78e5,inactive
nAChRalpha4,2,-1.4,9.27e5,1.05e6,inactive
ft,1,-1.16,4.50e5,3.42e5,inactive
ft,2,-0.908,4.53e5,5.53e5,inactive
Sema5c,1,0.669,1.02e6,9.46e5,inactive
Sema5c,2,-0.246,9.91e5,1.14e6,inactive
comm,1,-0.565,8.83e5,7.64e5,inactive
comm,2,-0.633,8.09e5,7.34e5,inactive
CG18788,1,-0.283,7.09e5,6.84e5,inactive
Vha16-1,1,-1.66,4.62e5,4.76e5,active
mthl5,1,-0.49,2.29e5,8.31e5,inactive
mthl5,2,-0.00574,4.52e5,4.53e5,inactive
Gr63a,1,-0.27,8.67e5,8.54e5,inactive
Gr58b,1,0.021,6.72e5,7.83e5,inactive
Gr58b,2,1.11,5.03e5,5.80e5,inactive
CG5342,1,0.517,3.31e5,7.95e5,inactive
tkv,1,-1.28,4.07e5,3.70e5,inactive
tkv,2,0.221,6.19e5,5.78e5,inactive
tkv,3,-0.873,6.76e5,8.08e5,inactive
Tyler + Shawn,1,0.0531,7.30e5,6.98e5,inactive
Tyler + Shawn,2,2.1,1.06e6,7.40e5,active
CG17821,1,0.588,6.49e5,6.96e5,inactive
CG17821,2,-3.36,2.84e5,3.13e5,active
CG7888,1,0.245,7.46e5,7.68e5,inactive
CG7888,2,0.278,4.92e5,5.05e5,inactive
Targ,1,1.54,7.95e5,7.23e5,active
Shaw,1,-0.912,6.24e5,6.35e5,inactive
Shaw,2,-0.535,5.29e5,8.49e5,inactive
Shaw,3,-2.12,3.92e5,4.09e5,active
Eglp2,1,0.947,7.82e5,8.84e5,inactive
Eglp2,2,1.09,5.17e5,5.62e5,inactive
CG32091,1,0.674,9.60e5,1.01e6,inactive
CG32091,2,0.532,4.85e5,5.50e5,inactive
CG4630,1,-0.57,6.77e5,6.63e5,inactive
CG4630,2,0.37,8.10e5,9.25e5,inactive
CG4743,1,0.78,3.48e5,8.10e5,inactive
ldd,1,-0.236,6.99e5,7.36e5,inactive
ldd,2,-0.48,4.86e5,5.93e5,inactive
Alg9,1,-0.0303,7.29e5,6.76e5,inactive
Alg9,2,0.475,4.23e5,5.42e5,inactive
Tango9,1,-0.27,6.96e5,6.60e5,inactive
CG5885,1,1.31,5.60e5,5.81e5,inactive
CG5885,2,-0.287,8.08e5,7.70e5,inactive
Mdr49,1,-0.619,6.31e5,7.00e5,inactive
Mdr49,2,0.264,9.12e5,8.54e5,inactive
CG17167,1,0.339,8.09e5,7.47e5,inactive
CG17167,2,-0.774,6.83e5,6.33e5,inactive
Ent3,1,-1.9,5.31e5,5.26e5,active
Ent3,2,0.0529,6.19e5,5.49e5,inactive
CG9663,1,-0.928,3.70e5,4.61e5,inactive
Or59b,1,-0.419,6.94e5,6.70e5,inactive
Or88a,1,0.0851,2.98e5,7.83e5,inactive
Or88a,2,1.45,5.58e5,5.41e5,inactive
slif,1,-0.559,7.54e5,1.03e6,inactive
slif,2,1.15,6.11e5,5.04e5,inactive
rho-7 + CG34231,1,-0.551,4.45e5,3.89e5,inactive
Or22b,1,-0.496,6.77e5,6.33e5,inactive
Or22b,2,-0.325,4.44e5,4.42e5,inactive
CG1806,1,0.729,7.48e5,8.13e5,inactive
PIG-Wb,1,1.52,7.64e5,7.49e5,active
wwk,1,-0.73,6.42e5,6.55e5,inactive
Poxm + Ctr1B,1,0.269,3.40e5,7.18e5,inactive
Poxm + Ctr1B,2,-0.204,4.33e5,4.71e5,inactive
mthl2,1,0.803,1.10e6,9.02e5,inactive
mthl2,2,-0.349,1.14e6,1.29e6,inactive
CG3285,1,-0.321,3.93e5,5.24e5,inactive
CG9416,1,2.11,8.46e5,7.75e5,active
CG8654,1,0.981,8.51e5,8.20e5,inactive
CG14855,1,0.684,3.12e5,8.80e5,inactive
CG14855,2,-0.284,4.45e5,4.24e5,inactive
CG7342,1,-0.0431,7.28e5,6.75e5,inactive
CG7342,2,-0.607,4.20e5,4.06e5,inactive
MFS15,1,0.782,8.00e5,5.80e5,inactive
MFS15,2,0.749,9.75e5,8.56e5,inactive
Or92a,1,0.247,2.53e5,9.36e5,inactive
CG33234,1,-1.21,5.97e5,6.26e5,inactive
CG33234,2,-0.66,3.62e5,4.81e5,inactive
CG5002,1,0.655,8.27e5,7.74e5,inactive
AdoR,1,4.43,8.84e5,7.72e5,active
AdoR,2,0.998,9.98e5,1.11e6,inactive
CG30344,1,-1.63,7.67e5,8.89e5,active
Gr2a,1,1.3,8.33e5,7.78e5,inactive
Gr2a,2,0.482,4.77e5,5.20e5,inactive
